In patent publication USRE39708E1, “Estrogen receptor modulators” (Chiron Corporation, priority 1998, dated 2007):
Where two headings read alike, the source gives them in different places. Some entries share one result that the patent states for a list of compounds. For at least one compound, name, drawing or mass did not settle the structure.

Test system: ERα and/or ERβ
Assay: ERα/ERβ transactivation assay in transfected CHO cells (luciferase reporter), estrogenicity and anti-estrogenicity
Assay type: cell-based, human
[1] = read-out: agonist or antagonist EC50 (determined to be active); active against either or both ERα and ERβ; agonist or antagonist value
[2] = active against either or both ERα and ERβ; agonist or antagonist value; read-out: agonist or antagonist EC50 (determined to be active)

SMILES: CCc1c(-c2ccc(O)cc2)nn(-c2cccc(C)c2C)c1-c1ccc(O)cc1 [4-[1-(2,3-dimethylphenyl)-4-ethyl-5-(4-hydroxyphenyl)pyrazol-3-yl]phenol]
- EC50 [1]: ≤ 4 µM

SMILES: CCc1c(-c2ccc(O)cc2)nn(-c2cnc3ccccc3n2)c1-c1ccc(O)cc1 [4-[4-ethyl-5-(4-hydroxyphenyl)-1-quinoxalin-2-pyrazol-3-yl]phenol]
- EC50 [1]: ≤ 4 µM

SMILES: CCc1c(-c2ccc(O)cc2C)nn(-c2ccccc2C(F)(F)F)c1-c1ccc(O)cc1C [4-{4-ethyl-5-(4-hydroxy-2-methylphenyl)-1-[2-(trifuoromethyl)phenyl]pyrazol-3-yl}-3-methylphenol]
- EC50 [1]: ≤ 4 µM

SMILES: Oc1ccc(-c2nn(-c3cccc(Cl)c3Cl)c(-c3ccc(O)cc3)c2-c2ccccc2)cc1 [4-[1-(2,3-dichlorophenyl)-5-(4-hydroxyphenyl)-4-phenylpyrazol-3-yl]phenol]
- EC50 [1]: ≤ 4 µM

SMILES: CC(C)c1ccc(-n2nc(-c3ccc(O)cc3)c(-c3ccccc3)c2-c2ccc(O)cc2)cc1 [4-{5-(4-hydroxyphenyl)-1-[4-(methylethyl)phenyl]-4-phenylpyrazol-3-yl}phenol]
- EC50 [2]: ≤ 4 µM

SMILES: CCc1c(-c2ccc(O)cc2)nn(-c2ccccc2C(F)(F)F)c1-c1ccc(OC(=O)C(C)(C)C)cc1 [4-{4-ethyl-3-(4-hydroxyphenl)-1-[2-(trifluoromethyl)phenyl]pyrazol-5-yl}phenyl 2,2-dimethylpropanoate]
- EC50 [1]: ≤ 4 µM

SMILES: CCc1c(-c2ccc(O)cc2)nn(-c2c(C)nn(C)c2[N+](=O)[O-])c1-c1ccc(O)cc1 [4-[1-(1,3-dimethyl-5-nitropyrazol-4-yl)-4-ethyl-3-(4-hydroxyphenyl)pyrazol-5-yl]phenol]
- EC50 [1]: ≤ 4 µM

SMILES: CCc1c(-c2ccc(O)cc2)nn(-c2c(Cl)cccc2Cl)c1-c1ccc(O)cc1 [4-[1-(2,6-dichlorophenyl)-4-ethyl-5-(4-hydroxyphenyl)pyrazol-3-yl]phenol]
- EC50 [1]: ≤ 4 µM

SMILES: Oc1ccc(-c2nn(-c3ccc(Br)cc3)c(-c3ccc(O)cc3)c2Cc2ccccc2)cc1 [4-[1-(4-bromophenyl)-5-(4-hydroxyphenyl)-4-benzylpyrazol-3-yl]phenol]
- EC50 [1]: ≤ 4 µM

SMILES: CCc1c(-c2ccc(O)cc2)nn(-c2ccc(C)c(C)c2)c1-c1ccc(O)cc1 [4-[1-(3,4-dimethylphenyl)-4-ethyl-5-(4-hydroxyphenyl)pyrazol-3-yl]phenol]
- EC50 [1]: ≤ 4 µM

SMILES: Oc1ccc(-c2nn(-c3ccccc3C(F)(F)F)c(-c3ccc(O)cc3)c2-c2ccccc2)cc1 [4-{5-(4-hydroxyphenyl)-4-phenyl-1-[2-(trifluoromethyl)phenyl]pyrazol-3-yl}phenol]
- EC50 [1]: ≤ 4 µM

SMILES: Oc1ccc(-c2nn(-c3cnc4ccccc4n3)c(-c3ccc(O)cc3)c2-c2ccccc2)cc1 [4-[5-(4-hydroxyphenyl)-4-phenyl-1-quinoxalin-2-ylpyrazol-3-yl]phenol]
- EC50 [1]: ≤ 4 µM

SMILES: CCc1c(-c2ccc(O)cc2)nn(-c2ccccc2)c1-c1ccc(O)cc1 [4-[4-ethyl-5-(4-hydroxyphenyl)-1-phenylpyrazol-3-yl]phenol]
- EC50 [1]: ≤ 4 µM

SMILES: Cc1cc(C(F)(F)F)cc(-n2nc(-c3ccc(O)cc3)c(-c3ccccc3)c2-c2ccc(O)cc2)n1 [4-{5-(4-hydroxyphenyl)-1-[6-methyl(trifluoromethyl)(2-pyridyl)]-4-phenylpyrazol-3-yl}phenol]
- EC50 [1]: ≤ 4 µM

SMILES: CCc1c(-c2ccc(O)cc2)nn(-c2ncc(Cl)cc2C(F)(F)F)c1-c1ccc(O)cc1 [4-{1-[5-chloro-3-(trifluoromethyl)(2-pyridyl)]-4-ethyl-5-(4-hydroxyphenyl)pyrazol-3-yl}phenol]
- EC50 [1]: ≤ 4 µM

SMILES: CCc1c(-c2ccc(O)cc2)nn(CC(C)=O)c1-c1ccc(O)cc1 [1-[3,5-bis(4-hydroxyphenyl)-4-ethylpyrazoyl]acetone]
- EC50 [1]: ≤ 4 µM

SMILES: CCc1c(-c2ccc(O)cc2)nn(Cc2ccccc2)c1-c1ccc(O)cc1 [4-[4-ethyl-5-(4-hydroxyphenyl)-1-benzylpyrazol-3-yl]phenol]
- EC50 [1]: ≤ 4 µM

SMILES: CS(=O)(=O)c1ccc(-n2nc(-c3ccc(O)cc3)c(Cc3ccccc3)c2-c2ccc(O)cc2)cc1 [1-[3,5-bis(4-hydroxyphenyl)-4-benzylpyrazolyl]-4-(methylsulfonyl)benzene]
- EC50 [2]: ≤ 4 µM

SMILES: CCc1c(-c2ccc(O)cc2)nn(C2CCCCCC2)c1-c1ccc(O)cc1 [4-[1-cycloheptyl-4-ethyl-5-(4-hydroxyphenyl)pyrazol-3-yl]phenol]
- EC50 [1]: ≤ 4 µM

SMILES: CCc1c(-c2ccc(O)cc2)nn(Cc2ccc(F)cc2)c1-c1ccc(O)cc1 [4-{4-ethyl-1-[(4-fluorophenyl)methyl]-5-(4-hydroxyphenyl)pyrazol-3-yl}phenol]
- EC50 [1]: ≤ 4 µM

SMILES: Oc1ccc(-c2nn(-c3cccc(Cl)c3)c(-c3ccc(O)cc3)c2-c2ccc(O)cc2)cc1 [4-[3,4-bis(4-hydroxyphenyl)-1-(3-chlorophenyl)pyrazol-5-yl]phenol]
- EC50 [1]: ≤ 4 µM

SMILES: Cn1nc(-c2ccc(O)cc2)c2ccc3c(O)cccc3c21 [3-(4-hydroxyphenyl)-1-methylbenzo[g]1H-indazol-6-ol]
- EC50 [1]: ≤ 4 µM

SMILES: CS(=O)(=O)c1ccc(-n2nc(-c3ccc(O)cc3)cc2-c2ccc(O)cc2)cc1 [1-[3,5-bis(4-hydroxyphenyl)pyrazoly]-4-(methylsulfonyl)benzene]
- EC50 [2]: ≤ 4 µM

SMILES: Oc1ccc(-c2nn(C3CCC3)c(-c3ccc(O)cc3)c2-c2ccccc2)cc1 [4-[1-cyclobutyl-3-(4-hydroxyphenyl)-4-phenypyrazol-5-yl]phenol]
- EC50 [1]: ≤ 4 µM

SMILES: Cc1ccc(F)cc1-n1nc(-c2ccc(O)cc2)c(-c2ccccc2)c1-c1ccc(O)cc1 [4-[1-(5-fluoro-2-methylphenyl)-5-(4-hydroxyphenyl)-4-phenylpyrazol-3-yl]phenol]
- EC50 [1]: ≤ 4 µM

SMILES: Oc1ccc(-c2nn(-c3ccccc3Cl)c(-c3ccc(O)cc3)c2-c2ccc(O)cc2)cc1 [4-[3,4-bis(4-hydroxyphenyl)-1-(2-chlorophenyl)pyrazol-5-yl]phenol]
- EC50 [1]: ≤ 4 µM

SMILES: Oc1ccc(-c2nn(-c3ccc(F)c(Cl)c3)c(-c3ccc(O)cc3)c2-c2ccccc2)cc1 [4-[1-(3-chloro-4-fluorophenyl)-5-hydroxyphenyl)-4-phenylpyrazol-3-yl]phenol]
- EC50 [1]: ≤ 4 µM

SMILES: CCc1c(-c2ccc(O)cc2)nn(C2CC2)c1-c1ccc(O)cc1 [4-[1-cyclopropyl-4-ethyl-5-(4-hydroxyphenyl)pyrazol-3-yl]phenol]
- EC50 [1]: ≤ 4 µM

SMILES: CCc1c(-c2ccc(O)cc2)nn(C2CCC2)c1-c1ccc(OC)cc1 [4-[1-cyclobutyl-4-ethyl-5-(4-methoxyphenyl)pyrazol-3-yl]phenol]
- EC50 [1]: ≤ 4 µM

SMILES: CCc1c(-c2ccc(O)cc2)nn(-c2c(F)cccc2Cl)c1-c1ccc(O)cc1 [4-[1-(6-chloro-2-fluorophenyl)-4-ethyl-5-(4-hydroxyphenyl)pyrazol-3-yl]phenol]
- EC50 [1]: ≤ 4 µM

SMILES: Oc1ccc(-c2nn(-c3ccc(I)cc3)c(-c3ccc(O)cc3)c2-c2ccccc2)cc1 [4-[3-(4-hydroxyphenyl)-1-(4-iodophenyl)-4-phenylpyrazol-5-yl]phenol]
- EC50 [1]: ≤ 4 µM

SMILES: Cc1c(-c2cccc(O)c2)nn(-c2ccccc2)c1-c1cccc(O)c1 [3-[3-(3-hydroxyphenyl)-4-methyl-1-phenylpyrazol-5-yl]phenol]
- EC50 [1]: ≤ 4 µM

SMILES: CCc1c(-c2ccc(O)cc2)nn(-c2ccc(C)cc2C)c1-c1ccc(O)cc1 [4-[1-(2,4-dimethylphenyl)-4-ethyl-5-(4-hydroxyphenyl)pyrazol-3-yl]phenol]
- EC50 [1]: ≤ 4 µM

SMILES: CCc1c(-c2ccc(OC(C)=O)cc2)nn(-c2ccccc2C(F)(F)F)c1-c1ccc(O)cc1 [4-{4-ethyl-5-(4-hydroxyphenyl)-1-[2-(trifluoromethyl)phenyl]pyrazol-3-yl}phenyl acetate]
- EC50 [1]: ≤ 4 µM

SMILES: Cn1nc2c(ccc3ccc(O)cc32)c1-c1ccc(O)cc1 [3-(4-hydroxyphenyl)-2-methyl-2-hydrobenzo[g]1H-indazolsol-8-ol]
- EC50 [1]: ≤ 4 µM

SMILES: CCc1c(-c2ccc(O)cc2)nn(CC2CC2)c1-c1ccc(O)cc1 [4-[1-(cyclopropylmethyl)4-ethyl-5-(4-hydroxyphenyl)pyrazol-3-yl]phenol]
- EC50 [1]: ≤ 4 µM

SMILES: Cc1c(-c2cccc(O)c2)nn(-c2ccc(O)cc2)c1-c1cccc(O)c1 [3-[1-(4-hydroxyphenyl)-3-(3-hydroxyphenyl)-4-methylpyrazol-5-yl]phenol]
- EC50 [1]: ≤ 4 µM

SMILES: Cc1cccc(-n2nc(-c3ccc(O)cc3)c(-c3ccccc3)c2-c2ccc(O)cc2)c1 [4-[5-(4-hydroxphenyl)-1-(3-methylphenyl)-4-phenylpyrazol-3-yl]phenol]
- EC50 [1]: ≤ 4 µM

SMILES: Oc1ccc(-c2nn(-c3ccccc3)c(-c3ccc(O)cc3)c2-c2ccc(O)cc2)cc1 [4-[3,5-bis(4-hydroxyphenyl)-1-phenylpyrazol-4-yl]phenol]
- EC50 [1]: ≤ 4 µM

SMILES: Oc1ccc(-c2nn(-c3ccccc3C(F)(F)F)c(-c3ccc(O)cc3)c2-c2ccc(O)cc2)cc1 [4-{3,4-bis(4-hydroxyphenyl)-1-[2-(trifluoromethyl)phenyl]pyrazol-5-yl}phenol]
- EC50 [1]: ≤ 4 µM

SMILES: Oc1ccc(-c2nn(-c3cc(Cl)cc(Cl)c3)c(-c3ccc(O)cc3)c2-c2ccccc2)cc1 [4-[1-(3,5-dichlorophenyl)-5-(4-hydroxyphenyl)-4-phenylpyrazol-3-yl]phenol]
- EC50 [1]: ≤ 4 µM

SMILES: Oc1ccc(-c2nn(-c3c(Cl)cccc3Cl)c(-c3ccc(O)cc3)c2-c2ccccc2)cc1 [4-[1-(2,6-dichlorophenyl)-5-(4-hydroxyphenyl)-4-phenylpyrazol-3-yl]phenol]
- EC50 [1]: ≤ 4 µM

SMILES: CCc1c(-c2ccc(O)cc2)nn(S(C)(=O)=O)c1-c1ccc(O)cc1 [3,5-bis(4-hydroxyphenyl)-4-ethyl-1-(methylsulfonyl)pyrazole]
- EC50 [1]: ≤ 4 µM

SMILES: CCc1c(-c2ccc(O)cc2)nn(-c2cc(C)c3c(C)nn(C)c3n2)c1-c1ccc(O)cc1 [4-[4-ethyl-5-(4-hydroxyphenyl)-1-(1,3,4-trimethylpyrazolo[4,5-e]pyridin-6-yl)pyrazol-3-yl]phenol]
- EC50 [1]: ≤ 4 µM

SMILES: CCCCCCCCCCCCCCCCSc1cccc(-n2nc(-c3ccc(O)cc3)c(CC)c2-c2ccc(O)cc2)c1 [4-[4-ethyl-1-(3-hexadecylthiophenyl)-5-(4-hydroxyphenyl)pyrazol-3-yl]phenol]
- EC50 [1]: ≤ 4 µM

SMILES: CCc1c(-c2ccc(O)cc2)nn(S(=O)(=O)c2ccccc2Cl)c1-c1ccc(O)cc1 [1-{[3,5-bis(4-hydroxyphenyl)-4-ethylpyrazolyl]sulfonyl}-2-chlorobenzene]
- EC50 [2]: ≤ 4 µM
